These are yes or no findings as the source states them, for the method shown. Binding seen in cells or lysates may run through a third protein. Some binding calls cover weakened binding; strength is not graded here. Tags and fused reporters may be left off the sequences shown.
Tests used:
[1] = molecular target: T1, V5-tagged HSPB8_WT (heat shock protein family B (small) member 8, wild-type) (human), Q9UJY1; assay: co-IP; RIPA-soluble extracts of HEK293T-HSPB8-WT-V5 cells transfected with untagged pCi-HSPB8 constructs, 48 h; anti-V5 (D3H8Q) antibody on Protein A magnetic beads; western blot; details: remark: other sources report otherwise
T1 chain: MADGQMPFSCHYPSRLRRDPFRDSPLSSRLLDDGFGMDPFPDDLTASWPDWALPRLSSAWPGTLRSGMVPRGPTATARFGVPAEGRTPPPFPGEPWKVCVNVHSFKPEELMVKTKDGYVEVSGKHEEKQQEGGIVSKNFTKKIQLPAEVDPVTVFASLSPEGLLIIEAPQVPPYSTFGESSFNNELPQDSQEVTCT

Amino acid sequences for entries named in this document (tags omitted).
UniProt O95817: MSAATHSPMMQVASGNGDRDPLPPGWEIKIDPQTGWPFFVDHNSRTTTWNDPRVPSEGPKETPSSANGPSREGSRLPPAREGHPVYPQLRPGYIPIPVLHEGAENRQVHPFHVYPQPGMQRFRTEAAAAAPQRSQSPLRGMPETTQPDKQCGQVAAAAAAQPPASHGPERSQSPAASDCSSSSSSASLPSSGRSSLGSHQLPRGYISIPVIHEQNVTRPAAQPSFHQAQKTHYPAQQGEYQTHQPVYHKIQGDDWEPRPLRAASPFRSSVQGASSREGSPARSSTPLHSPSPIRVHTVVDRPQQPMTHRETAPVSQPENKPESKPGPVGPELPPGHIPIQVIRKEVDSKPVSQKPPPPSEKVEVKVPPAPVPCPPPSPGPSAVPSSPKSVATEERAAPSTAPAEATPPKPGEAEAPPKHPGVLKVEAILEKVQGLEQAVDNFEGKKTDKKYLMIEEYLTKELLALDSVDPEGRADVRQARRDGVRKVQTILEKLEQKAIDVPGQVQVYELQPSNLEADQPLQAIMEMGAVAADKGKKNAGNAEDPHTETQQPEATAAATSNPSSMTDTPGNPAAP

[2] = molecular target: BAG3 (BAG cochaperone 3) (human (endogenous in HEK293T)) (UniProt O95817); assay: co-IP; RIPA-soluble extracts of HEK293T-HSPB8-WT-V5 cells transfected with untagged pCi-HSPB8 constructs, 48 h; anti-BAG3 (Abcam ab47124) antibody on Protein A magnetic beads; western blot

B1: untagged HSPB8_WT, Q9UJY1 1-196 (protein)
chain: T1 chain
In the case of B1, the binding [1] is reported as “binds”.

B2: untagged HSPB8_WT (protein, UniProt Q9UJY1 1-196)
chain: T1 chain
In the case of B2, the binding [2] is reported as “binds”.

From article PMC10351472
